Source: patent US20090221683A1, “Combination of CXCR4 Antagonist and Morphogen to Increase Angiogenesis” (Caritas St.Elizabeth Medical Center of Boston, Inc, priority 2005, published 2009)
Where two headings read alike, the source gives them in different places.

System: FVB mice with myocardial infarction
Settings: for HR (heart rate): mean ± SE
Procedure: Eight-week old male FVB mice were anesthetized with sodium pentobarbital (50 mg/kg IP). The animals were intubated orally with a 22G IV catheter and artificially ventilated with a respirator (Harvard Apparatus). A left intercostal thoracotomy was performed and the ribs were retracted with 5-0 polypropylene sutures. After the pericardium was opened, the left anterior descending (LAD) branch of the left coronary artery was ligated proximal to the bifurcation between the LAD and the diagonal branch using 8-0 polypropylene sutures and visualized with a dissecting microscope. Positive end-expiratory pressure was applied to fully inflate the lungs, and the chest was closed with 7-0 polypropylene sutures. […] After physiological assessment at one, two and four weeks after MI, a subgroup of the mice were euthanized by intravenous administration of a lethal dose of pentobarbital.
Transthoracic echocardiography (SONOS 5500, Hewlett Packard) was performed just before MI and one, two and four weeks after MI. Left ventricular diastolic (LVDd) and systolic (LVDs) dimensions and fractional shortening were measured at the mid-papillary muscle level. Hemodynamic measurements were obtained at two and four weeks after MI using a 1.0-French high-fidelity pressure catheter (Millar Instruments, Houston, Tex.) via the left carotid artery. LV systolic pressure and maximal positive (+dP/dt) and negative (−dP/dt) pressure development were recorded after stabilization of LV function and heart rate. Such methods can be used for study of the compositions and methods of the instant invention.

c1cc(CN2CCCNCCNCCCNCC2)ccc1CN1CCCNCCNCCCNCC1 [AMD-3100, 1,1′-[1,4-phenylene-bis(methylene)]-bis-1,4,8,11-tetraazacyclotetradecane]
HR (heart rate) (1 week after MI): 494 ± 24 bpm | HR (heart rate) (2 weeks after MI): 515 ± 16 bpm | HR (heart rate) (4 weeks after MI): 473 ± 26 bpm | HR (heart rate) (Before MI (baseline)): 510 ± 26 bpm | difference in heart rate between AMD and control groups (after MI): no significant difference
